Source: paper PMC7819943, “Rice protein-binding microarrays: a tool to detect cis-acting elements near promoter regions in rice”
This is one part of the list.

Target: T1, OsSMF1 (Oryza sativa, UniProt Q6ZLB0 1-436)
T1 sequence: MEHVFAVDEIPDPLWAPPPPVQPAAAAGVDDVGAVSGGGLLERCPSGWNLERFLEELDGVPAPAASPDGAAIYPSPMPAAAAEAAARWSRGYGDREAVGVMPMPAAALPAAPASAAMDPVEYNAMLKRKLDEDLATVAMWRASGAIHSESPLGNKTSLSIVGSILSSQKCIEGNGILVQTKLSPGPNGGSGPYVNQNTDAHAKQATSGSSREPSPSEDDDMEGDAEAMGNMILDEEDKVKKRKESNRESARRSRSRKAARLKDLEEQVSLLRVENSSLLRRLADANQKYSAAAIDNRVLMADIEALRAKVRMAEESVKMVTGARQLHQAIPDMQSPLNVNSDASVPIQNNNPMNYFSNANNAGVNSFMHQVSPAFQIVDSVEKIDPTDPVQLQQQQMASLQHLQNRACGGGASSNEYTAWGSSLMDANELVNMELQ
Assay: protein-binding microarray (RPBM); PBS, 2% BSA, 51.3 ng/ul salmon testes DNA, 50 uM zinc acetate, 200 nM TF, 25 C, 1 h; high values mean tight binding
Conditions: protein: recombinant; tags: N-terminal polyhistidine and DsRed monomer fusion (pET32a); chain copies: 2; label: CyDye5-dUTP incorporated in the synthesized complementary strand; 3' TTTTT single-stranded linker to array surface; dsDNA, one strand shown
Method in brief: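 Binding signal here means per-feature fluorescence intensity in arbitrary units. The values were read on an Axon 4000B scanner after a custom Agilent array, double-stranded by primer extension with Cy5-dUTP, was incubated with 200 nM protein at 25 °C for 1 h in PBS with 2% BSA, salmon testes DNA and 50 µM zinc acetate, then washed. The proteins were transcription factors with an N-terminal polyhistidine tag and DsRed, expressed in E. coli BL21-CodonPlus and purified on Ni–NTA.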

Row | Sequence | binding signal
1 | TTGGCACTCATAAACATATATGACTCGATCTATAATAGCTCGGAGTCACCTAGTGCAG | 4890 fluorescence intensity (a.u.)
2 | CTTATCTTTCTTATCTCCTCCACCTCATCATTTAGTACTACGGAGTCACCTAGTGCAG | 5700 fluorescence intensity (a.u.)
3 | AAAGTGAAATGACGCTGATACTAAGTACTAGTGGTGCTATCGGAGTCACCTAGTGCAG | 3800 fluorescence intensity (a.u.)
4 | GGAGAGGCCCACTGTTTCTTCCACTTCTCGCCTTGCTCGCCGGAGTCACCTAGTGCAG | 23900 fluorescence intensity (a.u.)
5 | GGTGGAGAGGAATAGCGCCGTATACCTGTGTCTCGTCGTGCGGAGTCACCTAGTGCAG | 3320 fluorescence intensity (a.u.)
6 | ATTATTAAATCACGAGTCACACCACTCTCTTTATGTTAGGCGGAGTCACCTAGTGCAG | 3500 fluorescence intensity (a.u.)
7 | CATGGACCCGGCCGCCAACGTACGCGACTCACAAGACGCACGGAGTCACCTAGTGCAG | 3260 fluorescence intensity (a.u.)
8 | TCACCGCGCCGCCAGCGCTCCTCGGCCACCTCATTGGCAACGGAGTCACCTAGTGCAG | 3660 fluorescence intensity (a.u.)
9 | TCCGTAATTTTGAATCCCTTGTATTGGTGGATAAATCAGACGGAGTCACCTAGTGCAG | 30000 fluorescence intensity (a.u.)
10 | TTCCTCGCGCTCCCACGCCACGCAGCAGCCGCAGATCTCCCGGAGTCACCTAGTGCAG | 3630 fluorescence intensity (a.u.)
11 | ATGAACAGTATCCAGTGGGGCGTCCACCTGACCGATTCAACGGAGTCACCTAGTGCAG | 4730 fluorescence intensity (a.u.)
12 | TGGGCCAAGTCAACTGGTGCACGGTGGCAGCACGCAGCTGCGGAGTCACCTAGTGCAG | 3350 fluorescence intensity (a.u.)
13 | ATAGATTTGATCATCAGTTGACACGTGCTATATACTCCCTCGGAGTCACCTAGTGCAG | 9750 fluorescence intensity (a.u.)
14 | AGAATTGATCCGAATGTGGTTCAACTCACTACGCTCCAAACGGAGTCACCTAGTGCAG | 19800 fluorescence intensity (a.u.)
15 | CCGGTATGTATAGTTTATGGTGTAAAATATCCGTTATTTGCGGAGTCACCTAGTGCAG | 4270 fluorescence intensity (a.u.)
16 | ATCCATTGCTGCTTTCAGCTGAGTCACCAACTCCTATCCACGGAGTCACCTAGTGCAG | 14100 fluorescence intensity (a.u.)
17 | CGGTCAGGGCGGGCGGCGTCGCCGGCGACGTGGCTGCTCGCGGAGTCACCTAGTGCAG | 3580 fluorescence intensity (a.u.)
18 | TCGAATCCCTCTGCGTGGACACGTAGCGGGGAGAGGAAAACGGAGTCACCTAGTGCAG | 4390 fluorescence intensity (a.u.)
19 | CAATTTGGCATTTACCACGATAACCACGTGGTTATTGTAGCGGAGTCACCTAGTGCAG | 6390 fluorescence intensity (a.u.)
20 | AACGGCCGTCTGCCACGTCATTTTCGCCGCCCTCTGGGATCGGAGTCACCTAGTGCAG | 27400 fluorescence intensity (a.u.)
21 | GTGTGCATGATATCATCGTCTTCTACTCCGGATCAGTAAACGGAGTCACCTAGTGCAG | 4030 fluorescence intensity (a.u.)

Row | Sequence | binding signal
22 | TATAGTACTGTAAGTTTAGTAATTACACATGTAAGTTTAGCGGAGTCACCTAGTGCAG | 31400 fluorescence intensity (a.u.)
23 | CCCTCACCGCTCACTGGCTCTCGTCTCTCGCCGCCGCCGCCGGAGTCACCTAGTGCAG | 30200 fluorescence intensity (a.u.)
24 | GAGAGTTGCTAGGAAACTTTTGCAGGTTGATTATGTGTCACGGAGTCACCTAGTGCAG | 3800 fluorescence intensity (a.u.)
25 | CTTCCTTTCGTCATGCGTACAAGCCATCCCCACATCACCACGGAGTCACCTAGTGCAG | 5710 fluorescence intensity (a.u.)
26 | CCTCGCTGATCGATCTCACTCCACGTCGTAGCTGTGAGCTCGGAGTCACCTAGTGCAG | 4680 fluorescence intensity (a.u.)
27 | TCCAAGATACCGGATTCGTGATCCCTACAAGCTTCTTGGTCGGAGTCACCTAGTGCAG | 4300 fluorescence intensity (a.u.)
28 | AACTTCATCTTGCATTCATATTTTGTCAGCCTTATCTAACCGGAGTCACCTAGTGCAG | 3140 fluorescence intensity (a.u.)
29 | GCGCCGAGCGGCCGCCTTGCTTCAGATCGCAACGATTTCTCGGAGTCACCTAGTGCAG | 12400 fluorescence intensity (a.u.)
30 | GCACAGCCAGCAACCGCGTGGCCGTCGCGAGCCGCTGCCACGGAGTCACCTAGTGCAG | 3400 fluorescence intensity (a.u.)
31 | TCATAATATTATAAATTTGGACAAAGATATATCATATCACCGGAGTCACCTAGTGCAG | 3150 fluorescence intensity (a.u.)
32 | AAACTTGGTAACGTGAGCTAACCGTAACTGTAGTCATTGCCGGAGTCACCTAGTGCAG | 4240 fluorescence intensity (a.u.)
33 | TACCAGCACTGTTTCCTGATACTGGTATCGATTAACAGGTCGGAGTCACCTAGTGCAG | 10100 fluorescence intensity (a.u.)
34 | ACCGAAGGCGTCGCCCATGGCCTCGCCGTACGAGGTGGCGCGGAGTCACCTAGTGCAG | 3850 fluorescence intensity (a.u.)
35 | GCCCAACCGGAGAGAGCACTAGTTGGCCGGCCATGTCATGCGGAGTCACCTAGTGCAG | 5280 fluorescence intensity (a.u.)
36 | ATGAGCCCACCACAACAATACCGCCACTCCACGTACACAACGGAGTCACCTAGTGCAG | 4370 fluorescence intensity (a.u.)
37 | CTCACCCCGCACTTCTCCCACCGCCACCGAGGCACGGCTCCGGAGTCACCTAGTGCAG | 4360 fluorescence intensity (a.u.)
38 | CCCTTGTTACATGTCATGCCCTGTGCTGTCTCCCAATCCCCGGAGTCACCTAGTGCAG | 4780 fluorescence intensity (a.u.)
39 | GTTGGGGAATGCGTTGTATCCGGTTTTGCAGCCTAGGGATCGGAGTCACCTAGTGCAG | 3380 fluorescence intensity (a.u.)
40 | CTCTTATCTCTCGATTGATCCACGAACAGTGACACCGCCGCGGAGTCACCTAGTGCAG | 3230 fluorescence intensity (a.u.)
41 | CCCTTACACCGCCCTGTGAACAGTCACTGACAATCCTGGCCGGAGTCACCTAGTGCAG | 4330 fluorescence intensity (a.u.)
42 | TGAGACGGCCGTGCGTGCGTCGGCGGGTCGCCCCGTCTCCCGGAGTCACCTAGTGCAG | 6430 fluorescence intensity (a.u.)

Part of the list above, with tabs.
Row	Sequence	binding signal
17	CGGTCAGGGCGGGCGGCGTCGCCGGCGACGTGGCTGCTCGCGGAGTCACCTAGTGCAG	3580 fluorescence intensity (a.u.)
18	TCGAATCCCTCTGCGTGGACACGTAGCGGGGAGAGGAAAACGGAGTCACCTAGTGCAG	4390 fluorescence intensity (a.u.)
19	CAATTTGGCATTTACCACGATAACCACGTGGTTATTGTAGCGGAGTCACCTAGTGCAG	6390 fluorescence intensity (a.u.)
20	AACGGCCGTCTGCCACGTCATTTTCGCCGCCCTCTGGGATCGGAGTCACCTAGTGCAG	27400 fluorescence intensity (a.u.)
21	GTGTGCATGATATCATCGTCTTCTACTCCGGATCAGTAAACGGAGTCACCTAGTGCAG	4030 fluorescence intensity (a.u.)
22	TATAGTACTGTAAGTTTAGTAATTACACATGTAAGTTTAGCGGAGTCACCTAGTGCAG	31400 fluorescence intensity (a.u.)
23	CCCTCACCGCTCACTGGCTCTCGTCTCTCGCCGCCGCCGCCGGAGTCACCTAGTGCAG	30200 fluorescence intensity (a.u.)
24	GAGAGTTGCTAGGAAACTTTTGCAGGTTGATTATGTGTCACGGAGTCACCTAGTGCAG	3800 fluorescence intensity (a.u.)
